The results are deposited in PubChem (AID917; NCATS, 2007).

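Mouse Ba/F3 pro-B cells engineered with a human thrombopoietin receptor and a glycoprotein IIb promoter-driven luciferase; luminescence is measured after incubation with compounds, with or without added TPO.
Each compound was tested as a dilution series from about 0.0025 to 38 µM.
The number is a fitted AC50, and a lower value means a more potent compound; the curve note shows whether the light signal rose or fell.
Well-fitted complete curves, or well-fitted partial curves with high efficacy, are called active, flat curves inactive, and all other curves, including signal decreases, inconclusive.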

Values are in nM.
All entries here are filed as inconclusive.
These entries are mostly ones the record files as inconclusive; other results of the assay are not listed here.
A potency from a partial, single-point or poor curve is only a rough figure.
Some entries filed as inconclusive have a full curve.
The first word of each remark tells which way the curve ran; it can be opposite to the aim of the assay.

CC(=O)[C@H]1CC[C@H]2[C@@H]3CCC4=CC(=O)CC[C@]4(C)[C@H]3CC[C@]12C read fitted potency 10000 nM (inhibitor, partial curve).
Cc1cc(N)c2ccccc2[n+]1CCCCCCCCCC[n+]1c(C)cc(N)c2ccccc21 [stimulated with TPO at its EC50] read fitted potency 5012 nM (inhibitor, full curve).
N[C@H](Cc1ccc(Cl)cc1)C(=O)O [stimulated with TPO at its EC50] read fitted potency 2512 nM (inhibitor, full curve, poor fit).
CC(=O)N1CCN(c2ccc(OC[C@H]3CO[C@](Cn4ccnc4)(c4ccc(Cl)cc4Cl)O3)cc2)CC1 read fitted potency 12589 nM (inhibitor, partial curve).
C=C(C)[C@H]1Cc2c(ccc3c2O[C@H]2COc4cc(OC)c(OC)cc4[C@@H]2C3=O)O1 read fitted potency 31.6 nM (inhibitor, full curve).
Brc1ccc([C@H]2CN3CCSC3=N2)cc1 [stimulated with TPO at its EC50] read fitted potency 25118 nM (activator, single point).
Brc1c(Br)c(Br)c2n[nH]nc2c1Br read fitted potency 3162 nM (inhibitor, partial curve, poor fit).
COc1cc([C@H]2c3cc4c(cc3[C@@H](O[C@@H]3O[C@H]5CO[C@@H](C)O[C@]5(O)C[C@H]3O)[C@@H]3COC(=O)[C@H]23)OCO4)cc(OC)c1O [stimulated with TPO at its EC50] read fitted potency 1995 nM (inhibitor, full curve).
COc1ccc2c(c1OC)C(=O)O[C@H]2[C@H]1c2cc3c(cc2CCN1C)OCO3 [stimulated with TPO at its EC50] read fitted potency 6310 nM (inhibitor, partial curve).
O=C1OC(=O)[C@@H]2[C@@H]1[C@@H]1CC[C@H]2O1 read fitted potency 12589 nM (inhibitor, partial curve).
CN(C)CCCO[C@H]1[C@H]([C@H](O)CO)O[C@H]2OC(C)(C)O[C@@H]21 [stimulated with TPO at its EC50] read fitted potency 5012 nM (inhibitor, partial curve).
CC(C)(C)NC(=O)[C@H]1CC[C@H]2[C@@H]3CC[C@H]4NC(=O)C=C[C@]4(C)[C@H]3CC[C@]12C [stimulated with TPO at its EC50] read fitted potency 10000 nM (inhibitor, partial curve).
OCCN1CCN(CCCN2c3ccccc3Sc3ccc(C(F)(F)F)cc32)CC1 read fitted potency 25118 nM (inhibitor, single point).
Oc1cc2c(c(Cl)c1O)CCNC[C@H]2c1ccccc1 [stimulated with TPO at its EC50] read fitted potency 10000 nM (inhibitor, partial curve).
CN(C)CCCN1c2ccccc2Sc2ccc(C(F)(F)F)cc21 [stimulated with TPO at its EC50] read fitted potency 15848 nM (inhibitor, single point).
NC(N)=NC(=O)c1nc(Cl)c(N2CCCCCC2)nc1N [stimulated with TPO at its EC50] read fitted potency 25118 nM (inhibitor, single point).
CCN(CC)CCCCCCCCOC(=O)c1cc(OC)c(OC)c(OC)c1 [stimulated with TPO at its EC50] read fitted potency 10000 nM (inhibitor, partial curve).

Some entries from above, unchanged:

Compound	setting	fitted potency (nM)	curve
COc1ccc2c(c1OC)C(=O)O[C@H]2[C@H]1c2cc3c(cc2CCN1C)OCO3	stimulated with TPO at its EC50	6310	inhibitor, partial curve
Brc1ccc([C@H]2CN3CCSC3=N2)cc1	stimulated with TPO at its EC50	25118	activator, single point